Experimental data as given in publication PMC10458893, “Design of Protegrin-1 Analogs with Improved Antibacterial Selectivity” (Pharmaceutics, 2023).
Positions of bridges follow the written chain, without caps; N, C: chain ends. Residues, ends and D or L forms follow the SMILES beside them.

Tested on: all the test strains
Format: cell-based
Settings: 128 μM used for MHC when less than 2% hemolysis at 64 μM
Procedure: The antimicrobial activity of the peptides was determined using two-fold serial dilutions in sterile 96-well flat-bottom polystyrene microplates (Eppendorf, Hamburg, Germany) (Cat. No. 0030730011), as previously described. The following strains of bacteria were used: E. coli ATCC 25922, E. coli ML35p (ATCC collection), E. coli BW 25113 (Keio collection), Pseudomonas aeruginosa PAO1 (ATCC collection), P. aeruginosa ATCC 27853, Klebsiella pneumoniae ATCC 700603, Staphylococcus aureus 209P (ATCC collection), S. aureus ATCC 29213, and Micrococcus luteus B-1314 (VKM collection). Acinetobacter baumannii (strain XDR CI 2675) was provided by the I.M. Sechenov First Moscow State Medical University hospital. After a 24 h incubation period, the metabolic activity of the bacteria was assessed by adding 20 µL of a redox indicator, resazurin (Sigma-Aldrich, St. Louis, MO, USA), at a concentration of 0.1 mg/mL, to the wells. The plate was then incubated for a further two hours. The minimum inhibitory concentration (MIC) was determined as the lowest concentration of the peptide at which no color change in the resazurin indicator was observed. The results were presented as median values, which were determined based on at least three independent experiments carried out in triplicate.

Q: With `CC(C)C[C@H](NC(=O)[C@H](CCCNC(=N)N)NC(=O)CNC(=O)CNC(=O)[C@@H](N)CCCNC(=N)N)C(=O)N[C@H]1CSSC[C@@H](C(=O)N[C@H](C(=O)NCC(=O)N[C@@H](CCCNC(=N)N)C(=O)O)C(C)C)NC(=O)[C@H](C(C)C)NC(=O)[C@@H]2CSSC[C@H](NC(=O)[C@H](Cc3ccc(O)cc3)NC1=O)C(=O)N[C@@H](CCCNC(=N)N)C(=O)N[C@@H](CCCNC(=N)N)C(=O)N[C@@H](CCCNC(=N)N)C(=O)N[C@@H](Cc1ccccc1)C(=O)N2` [PG-1, Protegrin-1] (H-RGGRLCYCRRRFCVCVGR-OH; disulfide 6-15, 8-13; N-terminus and C-terminus assumed) as the molecule, how does the “TI, therapeutic index (ratio of the MHC to the MIC (GM))” value read?
A: 1.8

Q: For `CC(C)[C@H](NC(=O)[C@@H]1CSSC[C@H](NC(=O)[C@H](C)NC(=O)[C@H](CCCNC(=N)N)NC(=O)CNC(=O)CNC(=O)[C@@H](N)CCCNC(=N)N)C(=O)N[C@@H](Cc2ccc(O)cc2)C(=O)N[C@H]2CSSC[C@H](NC(=O)[C@H](Cc3ccccc3)NC(=O)[C@H](CCCNC(=N)N)NC(=O)[C@H](CCCNC(=N)N)NC(=O)[C@H](CCCNC(=N)N)NC2=O)C(=O)N[C@@H](C)C(=O)N1)C(=O)NCC(=O)N[C@@H](CCCNC(=N)N)C(=O)O` [[L5A,V14A]] (H-RGGRACYCRRRFCACVGR-OH; disulfide 6-15, 8-13; N-terminus and C-terminus assumed), which “TI, therapeutic index (ratio of the MHC to the MIC (GM))” value is on record?
A: 4.2

Q: `CC(C)[C@@H]1NC(=O)[C@@H]2CSSC[C@H](NC(=O)[C@H](Cc3ccc(O)cc3)NC(=O)[C@@H](NC(=O)[C@H](C)NC(=O)[C@H](CCCNC(=N)N)NC(=O)CNC(=O)CNC(=O)[C@@H](N)CCCNC(=N)N)CSSC[C@@H](C(=O)N[C@@H](C)C(=O)NCC(=O)N[C@@H](CCCNC(=N)N)C(=O)O)NC1=O)C(=O)N[C@@H](CCCNC(=N)N)C(=O)N[C@@H](CCCNC(=N)N)C(=O)N[C@@H](CCCNC(=N)N)C(=O)N[C@@H](Cc1ccccc1)C(=O)N2` [[L5A,V16A]] (H-RGGRACYCRRRFCVCAGR-OH; disulfide 6-15, 8-13; N-terminus and C-terminus assumed) was tested. Which “TI, therapeutic index (ratio of the MHC to the MIC (GM))” value did it give?
A: 2.7

Q: How did the “TI, therapeutic index (ratio of the MHC to the MIC (GM))” value turn out when `CC(C)[C@@H]1NC(=O)[C@@H]2CSSC[C@H](NC(=O)[C@H](Cc3ccc(O)cc3)NC(=O)[C@@H](NC(=O)[C@H](C)NC(=O)[C@H](CCCNC(=N)N)NC(=O)CNC(=O)CNC(=O)[C@@H](N)CCCNC(=N)N)CSSC[C@@H](C(=O)N[C@@H](CCCNC(=N)N)C(=O)NCC(=O)N[C@@H](CCCNC(=N)N)C(=O)O)NC1=O)C(=O)N[C@@H](CCCNC(=N)N)C(=O)N[C@@H](CCCNC(=N)N)C(=O)N[C@@H](CCCNC(=N)N)C(=O)N[C@@H](Cc1ccccc1)C(=O)N2` [[L5A,V16R]] (H-RGGRACYCRRRFCVCRGR-OH; disulfide 6-15, 8-13; N-terminus and C-terminus assumed) was run?
A: 26.0

Q: How did the “TI, therapeutic index (ratio of the MHC to the MIC (GM))” value turn out when `CC(C)[C@H](NC(=O)[C@@H]1CSSC[C@H](NC(=O)[C@H](C)NC(=O)[C@H](CCCNC(=N)N)NC(=O)CNC(=O)CNC(=O)[C@@H](N)CCCNC(=N)N)C(=O)N[C@@H](Cc2ccc(O)cc2)C(=O)N[C@H]2CSSC[C@H](NC(=O)[C@H](Cc3ccccc3)NC(=O)[C@H](CCCNC(=N)N)NC(=O)[C@H](CCCNC(=N)N)NC(=O)[C@H](CCCNC(=N)N)NC2=O)C(=O)N[C@@H](C(C)C)C(=O)N1)C(=O)NCC(=O)N[C@@H](CCCNC(=N)N)C(=O)O` [[L5A]] (H-RGGRACYCRRRFCVCVGR-OH; disulfide 6-15, 8-13; N-terminus and C-terminus assumed) was run?
A: 9.4

Q: With `CC(C)[C@H](NC(=O)[C@@H]1CSSC[C@H](NC(=O)[C@H](CCCNC(=N)N)NC(=O)[C@H](CCCNC(=N)N)NC(=O)CNC(=O)CNC(=O)[C@@H](N)CCCNC(=N)N)C(=O)N[C@@H](Cc2ccc(O)cc2)C(=O)N[C@H]2CSSC[C@H](NC(=O)[C@H](Cc3ccccc3)NC(=O)[C@H](CCCNC(=N)N)NC(=O)[C@H](CCCNC(=N)N)NC(=O)[C@H](CCCNC(=N)N)NC2=O)C(=O)N[C@@H](C(C)C)C(=O)N1)C(=O)NCC(=O)N[C@@H](CCCNC(=N)N)C(=O)O` [[L5R]] (H-RGGRRCYCRRRFCVCVGR-OH; disulfide 6-15, 8-13; N-terminus and C-terminus assumed) as the molecule, how does the “TI, therapeutic index (ratio of the MHC to the MIC (GM))” value read?
A: 3.3

Q: How did the “TI, therapeutic index (ratio of the MHC to the MIC (GM))” value turn out when `CC(C)C[C@H](NC(=O)[C@H](CCCNC(=N)N)NC(=O)CNC(=O)CNC(=O)[C@@H](N)CCCNC(=N)N)C(=O)N[C@H]1CSSC[C@@H](C(=O)N[C@@H](CCCNC(=N)N)C(=O)NCC(=O)N[C@@H](CCCNC(=N)N)C(=O)O)NC(=O)[C@H](C)NC(=O)[C@@H]2CSSC[C@H](NC(=O)[C@H](Cc3ccc(O)cc3)NC1=O)C(=O)N[C@@H](CCCNC(=N)N)C(=O)N[C@@H](CCCNC(=N)N)C(=O)N[C@@H](CCCNC(=N)N)C(=O)N[C@@H](Cc1ccccc1)C(=O)N2` [[V14A,V16R]] (H-RGGRLCYCRRRFCACRGR-OH; disulfide 6-15, 8-13; N-terminus and C-terminus assumed) was run?
A: 26.0

Q: How did the “TI, therapeutic index (ratio of the MHC to the MIC (GM))” value turn out when `CC(C)C[C@H](NC(=O)[C@H](CCCNC(=N)N)NC(=O)CNC(=O)CNC(=O)[C@@H](N)CCCNC(=N)N)C(=O)N[C@H]1CSSC[C@@H](C(=O)N[C@H](C(=O)NCC(=O)N[C@@H](CCCNC(=N)N)C(=O)O)C(C)C)NC(=O)[C@H](C)NC(=O)[C@@H]2CSSC[C@H](NC(=O)[C@H](Cc3ccc(O)cc3)NC1=O)C(=O)N[C@@H](CCCNC(=N)N)C(=O)N[C@@H](CCCNC(=N)N)C(=O)N[C@@H](CCCNC(=N)N)C(=O)N[C@@H](Cc1ccccc1)C(=O)N2` [[V14A]] (H-RGGRLCYCRRRFCACVGR-OH; disulfide 6-15, 8-13; N-terminus and C-terminus assumed) was run?
A: 13.5

Q: For `CC(C)C[C@H](NC(=O)[C@H](CCCNC(=N)N)NC(=O)CNC(=O)CNC(=O)[C@@H](N)CCCNC(=N)N)C(=O)N[C@H]1CSSC[C@@H](C(=O)N[C@H](C(=O)NCC(=O)N[C@@H](CCCNC(=N)N)C(=O)O)C(C)C)NC(=O)[C@H](CCCNC(=N)N)NC(=O)[C@@H]2CSSC[C@H](NC(=O)[C@H](Cc3ccc(O)cc3)NC1=O)C(=O)N[C@@H](CCCNC(=N)N)C(=O)N[C@@H](CCCNC(=N)N)C(=O)N[C@@H](CCCNC(=N)N)C(=O)N[C@@H](Cc1ccccc1)C(=O)N2` [[V14R]] (H-RGGRLCYCRRRFCRCVGR-OH; disulfide 6-15, 8-13; N-terminus and C-terminus assumed), which “TI, therapeutic index (ratio of the MHC to the MIC (GM))” value is on record?
A: 13.0

Q: With `CC(C)C[C@H](NC(=O)[C@H](CCCNC(=N)N)NC(=O)CNC(=O)CNC(=O)[C@@H](N)CCCNC(=N)N)C(=O)N[C@H]1CSSC[C@@H](C(=O)N[C@@H](C)C(=O)NCC(=O)N[C@@H](CCCNC(=N)N)C(=O)O)NC(=O)[C@H](C(C)C)NC(=O)[C@@H]2CSSC[C@H](NC(=O)[C@H](Cc3ccc(O)cc3)NC1=O)C(=O)N[C@@H](CCCNC(=N)N)C(=O)N[C@@H](CCCNC(=N)N)C(=O)N[C@@H](CCCNC(=N)N)C(=O)N[C@@H](Cc1ccccc1)C(=O)N2` [[V16A]] (H-RGGRLCYCRRRFCVCAGR-OH; disulfide 6-15, 8-13; N-terminus and C-terminus assumed) as the molecule, how does the “TI, therapeutic index (ratio of the MHC to the MIC (GM))” value read?
A: 10.6

Q: How did the “TI, therapeutic index (ratio of the MHC to the MIC (GM))” value turn out when `CC(C)C[C@H](NC(=O)[C@H](CCCNC(=N)N)NC(=O)CNC(=O)CNC(=O)[C@@H](N)CCCNC(=N)N)C(=O)N[C@H]1CSSC[C@@H](C(=O)N[C@@H](CCCNC(=N)N)C(=O)NCC(=O)N[C@@H](CCCNC(=N)N)C(=O)O)NC(=O)[C@H](C(C)C)NC(=O)[C@@H]2CSSC[C@H](NC(=O)[C@H](Cc3ccc(O)cc3)NC1=O)C(=O)N[C@@H](CCCNC(=N)N)C(=O)N[C@@H](CCCNC(=N)N)C(=O)N[C@@H](CCCNC(=N)N)C(=O)N[C@@H](Cc1ccccc1)C(=O)N2` [[V16R]] (H-RGGRLCYCRRRFCVCRGR-OH; disulfide 6-15, 8-13) was run?
A: 60.6

Q: How did the “TI, therapeutic index (ratio of the MHC to the MIC (GM))” value turn out when `CC(C)C[C@H](NC(=O)[C@H](CCCNC(=N)N)NC(=O)CNC(=O)CNC(=O)[C@@H](N)CCCNC(=N)N)C(=O)N[C@H]1CSSC[C@@H](C(=O)N[C@H](C(=O)NCC(=O)N[C@@H](CCCNC(=N)N)C(=O)O)C(C)C)NC(=O)[C@H](C(C)C)NC(=O)[C@@H]2CSSC[C@H](NC(=O)[C@H](CCCNC(=N)N)NC1=O)C(=O)N[C@@H](CCCNC(=N)N)C(=O)N[C@@H](CCCNC(=N)N)C(=O)N[C@@H](CCCNC(=N)N)C(=O)N[C@@H](Cc1ccccc1)C(=O)N2` [[Y7R]] (H-RGGRLCRCRRRFCVCVGR-OH; disulfide 6-15, 8-13; N-terminus and C-terminus assumed) was run?
A: 24.9

Q: Which “TI, therapeutic index (ratio of the MHC to the MIC (GM))” value does the source give for `CC(C)C[C@H](NC(=O)[C@H](CCCNC(=N)N)NC(=O)CNC(=O)CNC(=O)[C@@H](N)CCCNC(=N)N)C(=O)N[C@H]1CSSC[C@@H](C(=O)N[C@@H](CCCNC(=N)N)C(=O)NCC(=O)N[C@@H](CCCNC(=N)N)C(=O)O)NC(=O)[C@H](C(C)C)NC(=O)[C@@H]2CSSC[C@H](NC(=O)[C@H]([C@@H](C)O)NC1=O)C(=O)N[C@@H](CCCNC(=N)N)C(=O)N[C@@H](CCCNC(=N)N)C(=O)N[C@@H](CCCNC(=N)N)C(=O)N[C@@H](Cc1ccccc1)C(=O)N2` [[Y7T,V16R]] (H-RGGRLCTCRRRFCVCRGR-OH; disulfide 6-15, 8-13; N-terminus and C-terminus assumed) here?
A: 6.1
